Literature values, collected in patent US20060063810A1, “Combination treatment for impaired motor function in parkinson's disease” (priority 2003, published 2006).
At least one compound was matched to its structure with a doubt left.

Columns and labels:
[1] = system: tardive dyskinesia or Parkinsonism; conditions: in vivo; cited from earlier work
[2] = system: depressed and nondepressed patients with Parkinson's disease; conditions: combined with levodopa; cited from earlier work

In the case of CN(C)CCCC1(c2ccc(F)cc2)OCc2cc(C#N)ccc21 (centres unmarked) [citalopram], the “effect in treating tardive dyskinesia or Parkinsonism” value [1] is listed as “no significant effect” and the “motor performance, subscores 23 and 31 of Unified Parkinson's Disease Rating Scale” value [2] is listed as “improvement of motor performance”.
